Data from the supplement of paper PMC3334620.
In all, about 33,000 sequences were measured (“E-score (-0.5 to 0.5)”: median about -0.0059, highest 2% from about 0.26 on). This is one part of the list.

What follows are sequences tested against T1, Cin5 (UniProt P40917) (assay: PBM E-score (8-mer binding enrichment) (E-score (-0.5 to 0.5)); higher = stronger / more preferred TF binding). Conditions: protein concentration: 100 nM; construct: GST-full length.
T1 sequence: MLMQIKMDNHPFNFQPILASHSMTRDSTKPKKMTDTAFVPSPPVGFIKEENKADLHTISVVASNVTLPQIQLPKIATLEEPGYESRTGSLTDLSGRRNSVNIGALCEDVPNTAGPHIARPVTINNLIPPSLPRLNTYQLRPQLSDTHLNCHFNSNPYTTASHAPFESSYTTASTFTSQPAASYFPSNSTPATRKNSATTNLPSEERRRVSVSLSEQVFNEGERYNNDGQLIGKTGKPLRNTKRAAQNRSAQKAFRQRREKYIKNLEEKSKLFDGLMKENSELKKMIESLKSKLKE
Experimental: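 Universal 'all 10-mer' protein binding microarrays (Agilent AMADID 015681) probed with GST-tagged S. cerevisiae TFs (full-length or DBD) made by in vitro transcription/translation (PURExpress), about 100-200 nM. Bound TF was detected with fluorescent anti-GST. Each ungapped 8-mer (which stands for itself and its reverse complement) is scored by the PBM enrichment score (E-score), a modified Wilcoxon-Mann-Whitney statistic from -0.5 to +0.5, computed with the Universal PBM Analysis Suite. Scale: above 0.35 generally sequence-specific binding.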

Sequence	PBM E-score
ACGACAAG	0.0721
GACAGTCC	-0.247
GTCAAAAA	-0.0603
CTTCGAGA	-0.103
CCTAGTCA	-0.0868
AAAGTGAC	-0.0856
GTATGGCA	0.0394
GTCAGCTA	0.083
CAGTATCA	0.0369
ATGCCACG	0.00813
AGAGGCAC	-0.115
CAGTTCAC	-0.00711
GTGCGCGA	-0.0112
CACACAAA	0.134
ATTAACAG	0.0268
ATATTGTG	0.107
TAACTGAA	0.0738
CTGAGCTA	-0.156
ACTTTTCG	0.0911
TTAGAAAA	0.0447
ACCACGGA	-0.136
GCAGTGCA	-0.0723
CACTTGTA	0.05
CCTGGCAG	-0.129
CCGTGGAA	0.0574

Sequence	PBM E-score
TATGCTGA	0.083
ACTGCAAA	0.0431
CCCTAACC	-0.11
CCTACTAA	0.0518
TGCGAGAA	-0.0508
CCGGTTCC	-0.05
ACTTATCG	0.071
CGAGCCCG	-0.212
CAACATTA	0.233
ACGTCGAC	-0.0163
ACCACTCT	-0.113
ATACCAAG	0.0673
ACTCCTAC	-0.0496
AGACTCGG	-0.315
CTGCCCAC	-0.151
GCATAAGC	0.276
CCCAGAGA	-0.106
ACCATACC	-0.0386
AATATACC	0.225
CATGTGTC	-0.0117
ACGAGGAG	-0.177
AAGTGGGC	0.0808
AAAAGTTT	0.00197
CCCTACGA	-0.0634
CGACCTCA	-0.0328

Sequence	PBM E-score
ATGAACCA	0.184
ATCAGCAT	0.18
ATCTTGAA	-0.0556
ACAGGGTC	-0.0638
AGGGTACA	0.0077
CGTCTTAA	-0.137
GTTTATGA	0.0759
CTTTTACC	0.0816
CTCTGGCA	-0.233
AATCAGCC	0.119
TTCTTCAA	0.0318
CTGTTGTC	0.0655
TAAGATAA	-0.0435
CAGTGAGA	-0.0414
CGCTTTTC	-0.0646
GACAAGAC	-0.0414
TCCAAACA	-0.121
AACGTTGT	-0.00831
CGAAGACG	-0.0228
CGATGTGA	-0.00227
ATACCTGG	-0.183
AGCTTCTC	-0.0429
GAACTTAC	0.106
GGTGGCGA	-0.033
CACATACC	-0.111

A section of the results above, for reference:
Sequence	PBM E-score
CAGTGAGA	-0.0414
CGCTTTTC	-0.0646
GACAAGAC	-0.0414
TCCAAACA	-0.121
AACGTTGT	-0.00831

Remaining list, next part:

Sequence	PBM E-score
CGGACAAA	0.0503
GTCACGAA	0.0162
AGTCGGTC	-0.138
AATGTTAC	0.0791
CGGTCTTA	-0.281
AAAACGGC	0.0328
CGGAACAA	0.302
CTGGACGA	-0.129
CGTGGGCC	-0.176
AGCAAAAT	0.0722
ATGTGCAG	-0.072
CCTAGGGC	-0.254
CATGAATG	0.11
ATTATTAC	0.305
ATATCATG	0.0651
CCTTCTAA	-0.147
CGAATACA	0.0945
ATGCAGAA	0.163
GCAGTAAA	0.0302
AGCTTAAC	-0.0689
AGTTTTCC	0.155
GCTGGCTA	-0.276
CCAGCGGG	-0.187
ATATGTAG	0.0753
AAAACACG	0.0801

Sequence	PBM E-score
TGCGGCAA	-0.0901
GTAACCAC	-0.0529
CATACTTC	0.0509
CTTCCTTC	-0.224
AGAAAGAT	0.225
ATTAGGGA	-0.0915
AAACGCTG	-0.139
CTATGCTC	0.033
AAGGTGTC	-0.095
ACGGTAGT	-0.0545
CGCAGGAG	-0.081
AATAGGGG	0.0525
GCCCACAC	-0.00586
ATTAAACA	0.0324
AATATCTA	-0.00558
CAGCTCCC	-0.305
GGTGACGA	0.0219
GAACCTCC	-0.231
CACCTCAA	0.0654
CCCTAGGG	-0.347
ATGACATC	0.248
AAAGACCA	-0.155
CTTGCCAA	-0.0718
TTCAGGAA	-0.158
ACTGAATG	0.0689

Sequence	PBM E-score
CGCCTACG	-0.0814
GGAACCTA	0.0299
AATAATCT	0.345
ATTAGGCG	-0.00055
TGACCAAA	0.0366
ATGAACGA	0.0193
GTTAGATA	0.113
CCGTAAGG	-0.33
CACATGCC	-0.0042
ACTCGCAT	0.202
CTTGGGGA	0.198
AGTAAAGG	0.0499
AGAGGTGG	-0.0424
GAGCAGAC	-0.118
CACGCGAG	0.113
TGACAACA	0.142
ACTAGGCC	-0.202
GGCTTTTA	-0.223
ATCGTAAC	0.0852
ACGGTGGG	-0.0554
CGGTACCG	-0.0517
GCTGGTCC	-0.138
AATATGTC	0.103
ACTTGTAA	0.0818
AAATAAGC	0.189

Single values from the results shown:
PBM E-score, CCCTAGGG reads -0.347
PBM E-score, CACTTGTA reads 0.05
PBM E-score, CCAGCGGG reads -0.187

Additional entries follow:

Sequence	PBM E-score
CGCGAGGA	0.0603
TCTAGGCA	-0.134
CTGTCTAA	-0.0712
CACGGTCG	-0.283
TCCAAGCA	-0.0771
GATTCCGC	0.183
CGAAAAGC	-0.179
CCATTCGC	0.0335
TGTCGTAA	0.15
CAGAGGAA	-0.115
CCCGTGTC	-0.16
ATTTAGTC	0.0988
GCCAACTA	-0.0888
AGGGATCG	-0.227
CAAGGCCA	-0.0891
CGTGAGGC	-0.104
CACCTCAG	-0.0514
ACGACTAT	0.00256
CTCATCCC	-0.162
GGCGGGAA	0.0169
ACCGCCCT	-0.185
CAGATTGC	0.0222
